US12697402B2, “Detection of colonic neoplasia in vivo using near-infrared peptide targeted against overexpressed cMet” (THE REGENTS OF THE UNIVERSITY OF MICHIGAN, priority 2019, dated 2026)
Entries after “also recorded” stand apart in the source; their conditions may differ. Part of at least one peptide drawing is inferred or uncertain, most often the ends. Peptide text beside a SMILES is read from it. * marks the point of attachment. X1 = CN1/C(=C/C=C/C=C/C2=[N+](CCCCCC(=O)*)c3ccc4ccccc4c3C2(C)C)C(C)(C)c2c1ccc1ccccc21

Chains of the proteins cited; added tags and fusions are not shown. Residues count along the entry.
UniProt P16056, 25-1379: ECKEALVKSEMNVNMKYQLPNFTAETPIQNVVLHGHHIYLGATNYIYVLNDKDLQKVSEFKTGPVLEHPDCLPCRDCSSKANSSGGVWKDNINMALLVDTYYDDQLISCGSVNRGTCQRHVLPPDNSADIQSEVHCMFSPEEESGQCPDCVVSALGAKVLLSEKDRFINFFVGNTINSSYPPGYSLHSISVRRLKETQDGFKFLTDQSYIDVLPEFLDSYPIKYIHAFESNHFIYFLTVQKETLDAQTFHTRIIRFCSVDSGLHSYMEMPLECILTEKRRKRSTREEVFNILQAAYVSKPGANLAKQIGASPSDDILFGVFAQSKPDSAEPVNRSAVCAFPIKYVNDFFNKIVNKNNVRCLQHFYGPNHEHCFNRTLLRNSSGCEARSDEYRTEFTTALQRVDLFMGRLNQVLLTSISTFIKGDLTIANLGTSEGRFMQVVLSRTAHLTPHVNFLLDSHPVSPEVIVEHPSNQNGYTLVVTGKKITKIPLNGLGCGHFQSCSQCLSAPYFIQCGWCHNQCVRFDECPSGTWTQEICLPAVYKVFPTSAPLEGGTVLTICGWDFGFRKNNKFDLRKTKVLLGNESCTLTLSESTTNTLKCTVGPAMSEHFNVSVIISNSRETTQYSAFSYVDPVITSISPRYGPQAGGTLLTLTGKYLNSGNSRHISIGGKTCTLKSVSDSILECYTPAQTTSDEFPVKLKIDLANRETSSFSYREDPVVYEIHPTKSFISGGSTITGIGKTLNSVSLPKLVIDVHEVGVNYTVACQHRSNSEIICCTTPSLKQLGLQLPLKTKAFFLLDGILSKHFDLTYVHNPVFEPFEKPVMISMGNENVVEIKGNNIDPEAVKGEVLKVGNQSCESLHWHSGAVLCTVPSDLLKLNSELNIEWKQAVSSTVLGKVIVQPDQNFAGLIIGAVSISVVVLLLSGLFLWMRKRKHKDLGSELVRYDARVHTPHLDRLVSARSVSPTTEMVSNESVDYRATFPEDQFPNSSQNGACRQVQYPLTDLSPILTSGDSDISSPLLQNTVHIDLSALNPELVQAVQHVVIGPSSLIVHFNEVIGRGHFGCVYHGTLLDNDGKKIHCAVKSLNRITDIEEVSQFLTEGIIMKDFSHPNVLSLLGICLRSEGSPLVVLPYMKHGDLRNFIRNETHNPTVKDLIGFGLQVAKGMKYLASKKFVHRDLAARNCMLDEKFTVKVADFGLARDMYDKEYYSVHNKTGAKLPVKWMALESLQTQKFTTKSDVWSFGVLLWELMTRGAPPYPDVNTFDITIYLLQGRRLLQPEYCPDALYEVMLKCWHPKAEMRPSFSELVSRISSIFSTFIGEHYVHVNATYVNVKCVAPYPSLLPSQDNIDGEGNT

Target: T1, cMet (Mus musculus, UniProt P16056)
T1 construct: Specimens of mouse colonic adenoma were harvested, formalin-fixed, and paraffin-embedded; from tissue; host or cells: CPC;Apc mouse colon (adenoma and normal mucosa), FFPE sections
Assay: Microscopic immunofluorescence of CPC;Apc mouse colon sections

[1] = CPC;Apc mouse colon sections, confocal microscopy

Q: CC(C)C[C@H](NC(=O)[C@H](CO)NC(=O)[C@H](Cc1c[nH]c2ccccc12)NC(=O)[C@H](CC(N)=O)NC(=O)[C@@H](NC(=O)[C@H](CCC(N)=O)NC(=O)[C@@H](N)CCC(N)=O)[C@@H](C)O)C(=O)NCC(=O)NCC(=O)NCC(=O)N[C@@H](CO)C(=O)N[C@@H](CCCCNC(=O)CCCCC[N+]1=C(/C=C/C=C/C=C2/N(C)c3ccc4ccccc4c3C2(C)C)C(C)(C)c2c1ccc1ccccc21)C(N)=O [QQT*-Cy5.5] (H-QQTNWSLGGGSK(X1)-NH2) was tested. Which “staining of normal colonic mucosa” value [1] did it give?
A: Minimal staining; also recorded: Reduced signal

Q: What about the “staining of surface of dysplastic colonocytes” value [1] of the same molecule?
A: Increased fluorescence staining

Q: What about the “AUC to distinguish dysplasia from normal (ROC)” value (mouse colon) of the same molecule?
A: 0.96

Q: And the “sensitivity to distinguish dysplasia from normal (ROC)” value (mouse colon)?
A: 93%

Q: What about the “specificity to distinguish dysplasia from normal (ROC)” value (mouse colon) of the same molecule?
A: 87%

Q: What about the “Pearson's correlation coefficient, co-localization of peptide and antibody” value (mouse tubular adenoma, merged image) of the same molecule?
A: 0.78

Q: What about the “mean (±SD) fluorescence intensity, adenoma” value (n=30, log-transformed data) of the same molecule?
A: 6.2±0.17

Q: And the “mean (±SD) fluorescence intensity, normal” value (n=30, log-transformed data)?
A: 4.9±0.25
